These are yes or no findings as the source states them, for the method shown. Binding seen in cells or lysates may run through a third protein. A result given as binding can be weak or reduced; the word gives no strength.
Biological target: GFP-CASK (wild-type) (human) (UniProt O14936)
Experiment: co-IP; GFP-CASK (wild-type or mutant) held on GFP-Trap agarose beads from lysates of transfected HEK-293 cells (PBS, 2 mM DTT, 2 mM EDTA, protease inhibitors, 1% Triton-X; 1 hour at 4°C); liprin-α3 or FLAG-Mint-1 co-transfected, Veli native; western blot with anti-liprin-α3, anti-FLAG or anti-velis

The chains behind the UniProt entries cited, without tags or fusion partners. Where a name states a change or a piece, a line headed by the entry shows the natural chain unless it says otherwise.
UniProt O14936: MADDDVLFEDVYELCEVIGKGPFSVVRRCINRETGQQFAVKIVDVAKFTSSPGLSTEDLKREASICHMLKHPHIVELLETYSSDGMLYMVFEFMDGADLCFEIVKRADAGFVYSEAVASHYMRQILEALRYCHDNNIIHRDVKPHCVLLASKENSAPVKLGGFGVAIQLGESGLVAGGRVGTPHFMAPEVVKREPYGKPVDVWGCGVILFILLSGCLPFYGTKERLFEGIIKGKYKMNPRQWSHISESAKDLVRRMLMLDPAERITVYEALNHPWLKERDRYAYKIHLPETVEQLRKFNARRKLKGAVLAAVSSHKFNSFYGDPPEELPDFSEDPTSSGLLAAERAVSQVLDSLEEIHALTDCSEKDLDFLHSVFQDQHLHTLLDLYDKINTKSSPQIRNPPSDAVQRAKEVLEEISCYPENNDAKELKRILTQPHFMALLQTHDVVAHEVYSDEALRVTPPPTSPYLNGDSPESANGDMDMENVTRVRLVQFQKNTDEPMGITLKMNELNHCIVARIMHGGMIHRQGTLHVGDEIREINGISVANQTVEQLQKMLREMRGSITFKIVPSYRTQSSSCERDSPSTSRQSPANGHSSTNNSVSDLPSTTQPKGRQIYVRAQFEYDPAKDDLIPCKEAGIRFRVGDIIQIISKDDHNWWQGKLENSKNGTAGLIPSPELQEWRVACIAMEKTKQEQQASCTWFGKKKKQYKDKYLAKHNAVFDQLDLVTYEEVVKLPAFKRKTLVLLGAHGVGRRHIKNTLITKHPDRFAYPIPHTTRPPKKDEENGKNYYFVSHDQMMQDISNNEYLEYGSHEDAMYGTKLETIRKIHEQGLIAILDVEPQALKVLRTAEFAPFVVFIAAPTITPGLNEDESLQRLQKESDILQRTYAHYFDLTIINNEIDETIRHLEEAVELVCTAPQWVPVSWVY
UniProt O75145: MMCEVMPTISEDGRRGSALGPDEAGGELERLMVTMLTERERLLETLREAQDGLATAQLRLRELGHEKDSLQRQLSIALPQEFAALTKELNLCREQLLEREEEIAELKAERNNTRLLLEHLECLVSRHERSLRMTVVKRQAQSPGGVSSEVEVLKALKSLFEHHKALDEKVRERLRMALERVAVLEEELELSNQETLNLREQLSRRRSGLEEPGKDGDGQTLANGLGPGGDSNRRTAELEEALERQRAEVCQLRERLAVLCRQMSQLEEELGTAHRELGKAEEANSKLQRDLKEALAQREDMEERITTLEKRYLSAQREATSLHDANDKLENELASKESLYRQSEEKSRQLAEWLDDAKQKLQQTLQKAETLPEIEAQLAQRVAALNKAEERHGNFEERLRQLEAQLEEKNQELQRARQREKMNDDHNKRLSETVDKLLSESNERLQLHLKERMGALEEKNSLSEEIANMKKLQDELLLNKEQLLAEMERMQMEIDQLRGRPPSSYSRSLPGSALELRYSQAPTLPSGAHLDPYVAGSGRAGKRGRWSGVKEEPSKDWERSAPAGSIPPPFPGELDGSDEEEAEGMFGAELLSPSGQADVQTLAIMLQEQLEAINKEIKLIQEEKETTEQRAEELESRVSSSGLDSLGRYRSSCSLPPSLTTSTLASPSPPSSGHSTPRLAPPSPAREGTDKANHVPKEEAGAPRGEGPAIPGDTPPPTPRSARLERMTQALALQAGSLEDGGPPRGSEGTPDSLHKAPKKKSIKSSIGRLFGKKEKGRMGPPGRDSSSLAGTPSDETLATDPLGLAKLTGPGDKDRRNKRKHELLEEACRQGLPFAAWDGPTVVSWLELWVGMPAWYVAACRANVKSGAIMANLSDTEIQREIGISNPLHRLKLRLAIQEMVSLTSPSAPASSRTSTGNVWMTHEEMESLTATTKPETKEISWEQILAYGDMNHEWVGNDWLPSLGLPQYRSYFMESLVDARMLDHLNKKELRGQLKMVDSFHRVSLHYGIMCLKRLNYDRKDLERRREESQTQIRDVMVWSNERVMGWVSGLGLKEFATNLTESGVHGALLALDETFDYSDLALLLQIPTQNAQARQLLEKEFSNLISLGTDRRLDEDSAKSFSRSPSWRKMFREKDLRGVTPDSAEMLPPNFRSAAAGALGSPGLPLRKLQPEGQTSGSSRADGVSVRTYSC

liprin-α3 (from UniProt O75145 1-1194) was tested, and the binding was “binds”.
